Source: PubChem BioAssay AID504444 (National Center for Advancing Translational Sciences (NCATS), 2011)
In all, about 360,000 compounds went through this assay and about 7,500 (2.1%) were called active. The shares of active, inactive and inconclusive entries below differ from those in the screen. Calls come from the whole dose curve; as a rule, active = well fitted inhibition curve with a large enough effect; inconclusive = small, poorly fitted or top-dose-only effect, or effect the other way; inactive = flat fitted curve, though single readings scatter. A potency beside an inconclusive call is a rough fit, not a confirmed value.
% is set by controls: 0 for no effect and ±100 for the full control effect; potency is the fitted concentration of half-maximal effect.

Experiment: Nrf2 qHTS screen for inhibitors; note: nearly all actives have a fitted effect of over 60% in size
Conditions: A549 ARE-Fluc reporter, luciferase luminescence, 18-24 h; activity change, negative = inhibition: at 46 µM (top of the series)
Summary of the method: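 Nrf2 function is reported as luminescence of an ARE-controlled luciferase in A549 cells. Compounds were tested at several concentrations, and a CellTiter-Fluor read on the same wells flagged cytotoxicity.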
For `Cc1ccc(S(=O)(=O)c2c(C)nn(C(C)(C)C)c2OC(=O)C2CCCC2)cc1`, the Potency was active: 20.6 µM.
For `CCN(CC)S(=O)(=O)c1ccc2[nH]c(=O)c3ccccc3c2c1`, the Potency was inconclusive: 2.91 µM [falling, full curve].
In the case of `CCCn1nc(C(=O)NC2CCCCCC2)c2ccccc2c1=O`, the “activity change, negative = inhibition” value is reported as inactive: 11%.
For `COCCCN1C(=O)c2ccc(C(=O)Nc3ccc(OC)cc3)cc2C1=O`, the Potency was inconclusive: 10.3 µM [activator, partial curve].
For `CCCCCCSc1cc(-c2nc3ccc(Cl)cn3c2NC2CCCCC2)ccc1OC`, the “activity change, negative = inhibition” value was inactive: 11.4%.
For `Cc1ccc(N2C(=O)CSC2c2cccnc2)c(Cl)c1` (stereo not given), the Potency was inconclusive: 29.1 µM [activator, single point].
For `O=C(CN1C(=O)C(c2ccc(F)cc2)=NC12CCCCCC2)Nc1ccc(F)c(Cl)c1`, the Potency was inconclusive: 29.1 µM [falling, single point].
With `Cc1ccc(NC(=O)c2sccc2C)nc1` the Potency was inconclusive: 11.6 µM [activator, partial curve].
In the case of `N/C(COc1ccc(Cl)cc1)=N\NS(=O)(=O)c1ccccc1`, the Potency is reported as inconclusive: 9.2 µM [falling, partial curve, poor fit].
For `COc1cc(-c2cc(OC)c3c(C)oc(C)c3c(=O)c2)ccc1OC(=O)c1ccccc1C`, the Potency was inconclusive: 23.1 µM [falling, partial curve, poor fit].
In the case of `CN(C(=O)c1nc(-c2cccc(F)c2)n2c1CCCCC2)c1ccccc1F`, the Potency is reported as inconclusive: 29.1 µM [activator, single point].
In the case of `COC(=O)c1sc(NC(=O)C(C)c2ccccc2)nc1C` (stereo not given), the “activity change, negative = inhibition” value is reported as inactive: -9.26%.
For `O=C(c1ccc([N+](=O)[O-])cc1[N+](=O)[O-])n1cnc2ccccc21`, the Potency was inconclusive: 29.1 µM [falling, single point].
With `CN1C(=O)c2cccc(N(C)C)c2C1=O` the Potency was inconclusive: 3.26 µM [activator, single point].
In the case of `CCN1CC(CN(C)Cc2nc(-c3ccc(C(F)(F)F)cc3)no2)CC1=O` (stereo not given), the Potency is reported as inconclusive: 20.6 µM [falling, single point].
With `CCN(CC)C(=O)CSc1nnc2nnc3cc(Cl)ccc3n12` the Potency was inconclusive: 20.6 µM [falling, single point].
In the case of `CC(C)=CCC/C(C)=C/CNC(=O)C[C@H]1C[C@H](C(=O)N2CCCCC2)[C@@]2(C)c3[nH]c4cc(CCC(=O)N(C)C)ccc4c3CCN2C1=O`, the Potency is reported as inconclusive: 29.1 µM [falling, single point].
With `Cc1nc(-c2ccc(NC(=O)C3CC3)cc2)cs1` the Potency was inconclusive: 11.6 µM [activator, partial curve].
For `O=C(Nc1ccc(Cc2ccncc2)cc1)c1ccc(N2CCOCC2)c([N+](=O)[O-])c1`, the Potency was inconclusive: 23.1 µM [falling, partial curve, poor fit].
With `COc1cccc(NC(=O)CSc2nc3ccc(NC(=O)c4ccco4)cc3s2)c1` the Potency was inconclusive: 20.6 µM [falling, single point].
In the case of `COc1ccc(OC)c(NC(=O)Cn2cc(C(=O)c3ccco3)c3ccccc32)c1`, the Potency is reported as active: 14.6 µM.
For `CCc1ccc2oc(-c3ccc(OC)cc3)cc(=Nc3c(C)n(C)n(-c4ccccc4)c3=O)c2c1`, the Potency was inconclusive: 5.17 µM [activator, full curve].
For `O=C(Cn1cnc2c(nc3n2CCCCC3)c1=O)Nc1ccc(F)cc1`, the “activity change, negative = inhibition” value was inactive: 23.6%.
With `COn1c(SCc2ccc(C)cc2C)nc2ccccc2c1=O` the Potency was inconclusive: 13 µM [falling, partial curve, poor fit].
With `COc1ccc(CC(=O)OCN2C(=O)c3ccccc3C2=O)cc1OC` the “activity change, negative = inhibition” value was inactive: 1.36%.
In the case of `CC(=O)Nc1ccc(OCC(O)Cn2c3ccccc3c3ccccc32)cc1` (stereo not given), the “activity change, negative = inhibition” value is reported as inactive: 11.8%.
For `COc1cccc(CNC(=O)CC(c2ccc(F)cc2)N2Cc3ccccc3C2=O)c1` (stereo not given), the “activity change, negative = inhibition” value was inactive: 18.5%.
With `Cc1cc(OCCCSc2nc(-c3ccc(C(C)(C)C)cc3)nc3cc(=O)[nH]n23)ccc1Cl` the Potency was inconclusive: 20.6 µM [falling, single point].
For `Cc1c(C)c2ccc(OC(C)C(=O)NCCCn3ccnc3)c(C)c2oc1=O` (stereo not given), the Potency was inconclusive: 32.6 µM [falling, partial curve, poor fit].
For `CCC(Sc1nc2cc3c(cc2c(=O)n1Cc1ccco1)OCO3)C(=O)Nc1cccc(OC)c1` (stereo not given), the Potency was inconclusive: 16.4 µM [falling, single point].
In the case of `CCOc1ccc(NC(=O)c2ccc3nccnc3c2)cc1`, the Potency is reported as inconclusive: 29.1 µM [activator, single point].
For `Cc1ccc2[nH]c(=O)c3cc(C(=O)NCC4CCCO4)sc3c2c1` (stereo not given), the Potency was inconclusive: 20.6 µM [falling, single point].
For `O=S(=O)(/C=C/c1ccccc1)N1CCN(Cc2ccccc2)CC1`, the Potency was inconclusive: 16.4 µM [falling, single point].
With `CCC(C(=O)NCCc1ccccc1OC)n1nc(C)c2c(C)n(-c3ccccc3)nc2c1=O` (stereo not given) the Potency was inconclusive: 13 µM [falling, partial curve, poor fit].
With `Cc1onc(-c2ccccc2)c1-c1nc2ccccc2c(=O)o1` the Potency was inconclusive: 32.6 µM [activator, single point].
For `Cc1cccc(-c2nnc3n2N=C(c2ccccc2Br)CS3)c1`, the Potency was inconclusive: 20.6 µM [falling, single point].
With `CCC(C(=O)NCCc1ccccc1)c1ccccc1` (stereo not given) the Potency was inconclusive: 0.731 µM [falling, full curve, poor fit].
With `CCc1ccc2c(c1)[C@]1(C(=O)N2)[C@@H]2C(=O)N(Cc3ccccc3)C(=O)[C@@H]2[C@@H]2CCCN21` the Potency was inconclusive: 18.4 µM [falling, partial curve, poor fit].
With `CCCOc1ccc(NC(=O)CC2C(=O)N(c3ccccc3)C(=O)N2CCC(C)C)cc1` (stereo not given) the “activity change, negative = inhibition” value was inactive: 8.8%.
With `COC(=O)C1=C(C)NC(C)=C(C(=O)OC)C1/C=C/c1ccccc1` the Potency was inconclusive: 23.1 µM [falling, single point].
In the case of `O=C(NC12CC3CC(CC(C3)C1)C2)N1CCCC(CO)C1` (stereo not given), the Potency is reported as inconclusive: 16.4 µM [activator, partial curve, poor fit].
For `Cc1ccc(-n2cc(S(=O)(=O)c3ccc(C)cc3)[nH]c2=O)cc1`, the “activity change, negative = inhibition” value was inactive: 3.49%.
In the case of `CC(C)C(c1nnnn1C1CCCCC1)N1CCc2ccccc2C1` (stereo not given), the “activity change, negative = inhibition” value is reported as inactive: 2.01%.
With `C(=Cc1c[nH]c2ccccc12)c1ccc2ccccc2n1` the Potency was inconclusive: 1.16 µM [activator, full curve, poor fit].
In the case of `CC1Cc2nc(SCC(=O)N3CCN(c4ccccc4)CC3)n(CCc3ccccc3)c(=O)c2S1` (stereo not given), the Potency is reported as inconclusive: 10.3 µM [falling, partial curve, poor fit].
For `COc1ccc(OCc2nnc(SCC(=O)N3c4ccccc4Sc4ccc(Cl)cc43)o2)cc1`, the Potency was inconclusive: 29.1 µM [falling, single point].
In the case of `O=C1CSC(c2ccc(Cl)cc2)N1Nc1nc(N2CCOCC2)nc(N2CCOCC2)n1` (stereo not given), the Potency is reported as inconclusive: 29.1 µM [falling, single point].
For `Cc1ccc(CN2CCN(c3ncccn3)CC2)c(C)c1`, the Potency was inconclusive: 25.9 µM [falling, partial curve, poor fit].
With `CC1CC(C)CN(c2oc(-c3ccccc3Cl)nc2C#N)C1` (stereo not given) the Potency was inconclusive: 1.84 µM [falling, partial curve].
With `CCCNC(=O)c1cccc(COc2ccccc2OC)c1` the Potency was inconclusive: 4.11 µM [activator, partial curve, poor fit].
In the case of `CCCC(=O)Nc1nc2ccc(OCC)cc2s1`, the Potency is reported as inconclusive: 2.31 µM [activator, full curve, poor fit].
In the case of `O=C(CN(Cc1ccccc1)S(=O)(=O)c1ccc(F)cc1)NCc1cccnc1`, the “activity change, negative = inhibition” value is reported as inactive: -4.51%.
With `CC(C)(C)c1ccc(C(=O)CCC(=O)OCC(=O)NCCc2ccc(S(N)(=O)=O)cc2)cc1` the “activity change, negative = inhibition” value was inactive: -18.7%.
With `Cc1ccc(S(=O)(=O)c2nc(NCCCn3ccnc3)sc2Cl)cc1` the Potency was inconclusive: 23.1 µM [falling, single point].
With `Cc1ccc(Cn2c(=N)c(C(=O)NCC3CCCO3)cc3c(=O)n4cccc(C)c4nc32)cc1` (stereo not given) the Potency was inconclusive: 29.1 µM [falling, single point].
For `CC(C)(C)c1ccc(C(=O)NCCCNC(=O)c2cccnc2)cc1`, the Potency was active: 8.2 µM.
With `Cc1nc2nc(NC(=O)c3ccco3)[nH]n2c(=O)c1C` the Potency was inconclusive: 25.9 µM [activator, single point].
For `CN1CCN(C(=O)c2cc3c(=O)n4ccccc4nc3s2)CC1`, the Potency was inconclusive: 6.51 µM [activator, partial curve].
For `CCOc1ccc(-c2nc3c(C#N)c[nH]n3c2NC2CCCC2)cc1`, the Potency was inconclusive: 5.17 µM [activator, partial curve, poor fit].
In the case of `COc1ccc(C(=O)CNc2ccc3ccccc3c2)cc1`, the Potency is reported as inconclusive: 23.1 µM [activator, partial curve].
With `CCn1c(SCC(=O)N/N=C/C=C\c2ccccc2[N+](=O)[O-])nc2ccccc21` the Potency was inconclusive: 23.1 µM [falling, partial curve, poor fit].
With `O=c1c2cc(Cl)ccc2nc(-c2ccc(Cl)c(Cl)c2)n1O` the Potency was inconclusive: 20.6 µM [falling, single point].
In the case of `CCOc1c2ccc(C(=O)NCc3ccc(C)cc3)cc2nn1CCOC`, the Potency is reported as inconclusive: 4.61 µM [falling, partial curve, poor fit].
In the case of `COc1ccccc1OCCC(=O)Nc1cccc(S(=O)(=O)N2CCCCC2)c1`, the Potency is reported as inconclusive: 29.1 µM [falling, single point].
With `Cc1ccccc1Cn1cc(NC(=O)c2cc3nc(-c4ccco4)cc(C(F)(F)F)n3n2)cn1` the Potency was inconclusive: 20.6 µM [falling, single point].
